Source: paper PMC9431697
No constants are given. Whether binding was seen depends on the method and setting. Binding seen in cells or lysates may run through a third protein. Some results given as binding are weak or reduced against the parent protein; the word gives no strength.

Tests used:
[1] = target: transcriptional factor CREB, endogenous in mouse hippocampus (mouse (endogenous in hippocampal tissue)) (UniProt Q01147); test: co-IP; mouse hippocampal tissue homogenised in RIPA lysis buffer without SDS; about 1 mg clarified lysate with protein A/G agarose beads and antibody or IgG control (4 ug) at 4°C overnight; immunoblot; WT tissue (Figure 7F, 7J), +/+ and Phf21b Δ4/Δ4 tissue (Figure 7K)
[2] = target: p-CREB (S133), CREB phosphorylated at the serine residue 133, endogenous in mouse hippocampus (mouse (endogenous in hippocampal tissue)) (UniProt Q01147); test: as above

B1: PHF21B (PHD finger protein 21B), endogenous in mouse hippocampus (protein, UniProt Q8C966 1-487)
chain: MELQSRSEALAVELARHQNGDLKKQLHERQPRIAALSDKQALGSTTAVPVTGPQVSSLQRLAGQGAAVLPQVRPKTLIPDSLPVTPGRDRPPKQPPTFQKATVVSIKNPSPALPTANNTVNHVPTPSSQTQALTEPTAITSPLSSAGVAYAIISTSPSNAATITPSTTVPVASDGIKVQPLLISADKKVIIIQPQVKTQPESSAEPEPPTEEPSQGAQATKEDQPPSKENPEKIAFMVALGLVTTEHLEEIQSKRQERKRRSTANPAYSGFLETERKRLASSYLHNPLFLTARANEDPCWKGEITHDEFCAACKRGASLQPCGTCSGAYHLSCLDPPLKTPPKGLWVCPKCQRKALKKDEGVPWTGMLAIVHSYVTHKTVKEEEKQKLLQRGSELQSEHQQLEERDRQLASAVKKCLELKTSLLARQRGTQSSLDRIRALLRLIQGEQMLQVAMATTSPTPLLAGPWTKPSTTTTMRTTLQHPQNHN
binding [1]: binds | binding [2]: binds
